Laboratory results published in paper PMC12022250.
These are yes or no findings as the source states them, for the method shown. Binding seen in cells or lysates may run through a third protein. Some entries that bind do so weakly or less than the wild type.

By UniProt entry, the sequences of proteins in these tests, tags left out.
UniProt P46937: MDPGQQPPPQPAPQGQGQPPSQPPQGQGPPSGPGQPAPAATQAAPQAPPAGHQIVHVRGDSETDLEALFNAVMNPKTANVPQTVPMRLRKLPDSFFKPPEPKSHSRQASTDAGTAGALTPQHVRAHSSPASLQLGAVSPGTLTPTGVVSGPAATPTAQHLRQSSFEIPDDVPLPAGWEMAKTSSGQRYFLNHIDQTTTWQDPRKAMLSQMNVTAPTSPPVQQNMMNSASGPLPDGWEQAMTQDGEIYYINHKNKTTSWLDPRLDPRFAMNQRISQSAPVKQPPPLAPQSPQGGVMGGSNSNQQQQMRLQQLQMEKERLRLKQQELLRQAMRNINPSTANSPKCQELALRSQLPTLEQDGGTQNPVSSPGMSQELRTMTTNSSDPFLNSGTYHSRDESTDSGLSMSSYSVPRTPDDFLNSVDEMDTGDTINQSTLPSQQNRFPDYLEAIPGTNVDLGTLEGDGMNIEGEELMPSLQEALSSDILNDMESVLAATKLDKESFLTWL
UniProt P35711: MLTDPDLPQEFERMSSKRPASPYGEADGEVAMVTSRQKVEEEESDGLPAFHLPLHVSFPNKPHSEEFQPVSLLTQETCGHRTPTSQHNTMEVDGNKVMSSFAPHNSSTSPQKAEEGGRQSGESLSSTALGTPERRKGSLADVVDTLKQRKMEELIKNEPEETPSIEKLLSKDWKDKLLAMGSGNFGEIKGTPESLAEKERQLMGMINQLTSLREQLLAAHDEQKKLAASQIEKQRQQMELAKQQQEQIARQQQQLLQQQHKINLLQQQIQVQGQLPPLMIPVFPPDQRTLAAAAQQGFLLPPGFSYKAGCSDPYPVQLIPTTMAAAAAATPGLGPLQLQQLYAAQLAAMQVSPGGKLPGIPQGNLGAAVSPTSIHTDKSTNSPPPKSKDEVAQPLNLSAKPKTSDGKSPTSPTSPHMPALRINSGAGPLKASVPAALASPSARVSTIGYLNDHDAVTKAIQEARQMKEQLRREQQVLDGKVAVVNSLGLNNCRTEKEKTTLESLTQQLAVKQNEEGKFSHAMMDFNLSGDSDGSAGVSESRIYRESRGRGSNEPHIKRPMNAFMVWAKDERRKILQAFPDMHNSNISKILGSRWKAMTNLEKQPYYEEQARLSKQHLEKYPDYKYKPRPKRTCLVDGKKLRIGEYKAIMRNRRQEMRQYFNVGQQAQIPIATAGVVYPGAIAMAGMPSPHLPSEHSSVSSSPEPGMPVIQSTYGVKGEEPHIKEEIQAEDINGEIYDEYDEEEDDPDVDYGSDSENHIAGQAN

Biological target: yes-associated protein 1 (human (endogenous in BT-474-OR and SNU-251-OR)) (UniProt P46937)
Assay: co-IP; 1000 ug total lysate of BT-474-OR or SNU-251-OR cells in NETN buffer (250 mM NaCl, 5 mM Tris-HCl, 5 mM EDTA, 0.5% NP-40), precipitated with anti-YAP or anti-SOX5 antibody (1:50) overnight with Protein A/G beads; normal rabbit IgG as negative control; Western blot

binding: binds
Substance: SRY-box transcription factor 5 (from UniProt P35711 1-763)
